The text below walks through data of article PMC6705773.

Sequences of proteins named here, by UniProt entry; tags and fusion partners are left off. A change or cut given only in a name is not applied to a line headed by its entry.
UniProt O32022: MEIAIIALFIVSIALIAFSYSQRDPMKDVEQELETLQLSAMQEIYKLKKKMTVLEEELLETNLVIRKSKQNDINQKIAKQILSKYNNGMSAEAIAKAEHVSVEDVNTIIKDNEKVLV

No constants are given. Whether binding was seen depends on the method and setting. Binding can be weak; no strength is given. Where a sequence is shown, tags or fusion partners need not be part of it.

This experiment concerns the target T1, FtsX fused to the T18 or T25 domain of Bordetella adenylate cyclase (B. subtilis) (UniProt O34876).
T1 sequence: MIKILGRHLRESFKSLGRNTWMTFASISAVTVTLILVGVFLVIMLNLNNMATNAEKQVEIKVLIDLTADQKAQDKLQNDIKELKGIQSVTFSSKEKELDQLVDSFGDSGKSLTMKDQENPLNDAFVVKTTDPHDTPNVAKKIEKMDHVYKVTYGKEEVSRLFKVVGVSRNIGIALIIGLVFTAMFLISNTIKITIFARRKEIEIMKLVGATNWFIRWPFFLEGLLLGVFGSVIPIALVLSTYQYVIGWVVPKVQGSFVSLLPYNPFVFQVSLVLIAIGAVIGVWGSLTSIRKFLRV
The experiment in a line: two-hybrid; bacterial adenylate cyclase two-hybrid (BACTH); T18 and T25 fusions co-transformed into E. coli BTH101; spotted on LB agar with IPTG (0.25 mM) and X-Gal, 30°C, 16 hours.

“SweD lacking its entire intracellular domain [SweD(TM)], BACTH fusion (B. subtilis) (domain or fragment)”: the binding entry is listed as “binds”.
Take “SweD lacking its putative coiled-coil domain (SweDΔCC), BACTH fusion (from UniProt O32022)”: the binding result was “binds”.
